# According to US20190224333A1 (published 2019):
# These are yes or no findings as the source states them, for the method shown. Some binding calls cover weakened binding; strength is not graded here.
# T1: fibrin (human, UniProt P02671 36-629; P02675 45-491; P02679 27-437, limits assumed)
# T1 construct: Thin polymerised fibrin layer made by layer-by-layer deposition of fibrinogen-thrombin-fibrinogen on ELISA plates, SPR chips and interferometry sensors; Human is stated for the purified fibrinogen used in biopanning; also called fibrin layer; fibrin clot
# T1 sequence (looked up) 1: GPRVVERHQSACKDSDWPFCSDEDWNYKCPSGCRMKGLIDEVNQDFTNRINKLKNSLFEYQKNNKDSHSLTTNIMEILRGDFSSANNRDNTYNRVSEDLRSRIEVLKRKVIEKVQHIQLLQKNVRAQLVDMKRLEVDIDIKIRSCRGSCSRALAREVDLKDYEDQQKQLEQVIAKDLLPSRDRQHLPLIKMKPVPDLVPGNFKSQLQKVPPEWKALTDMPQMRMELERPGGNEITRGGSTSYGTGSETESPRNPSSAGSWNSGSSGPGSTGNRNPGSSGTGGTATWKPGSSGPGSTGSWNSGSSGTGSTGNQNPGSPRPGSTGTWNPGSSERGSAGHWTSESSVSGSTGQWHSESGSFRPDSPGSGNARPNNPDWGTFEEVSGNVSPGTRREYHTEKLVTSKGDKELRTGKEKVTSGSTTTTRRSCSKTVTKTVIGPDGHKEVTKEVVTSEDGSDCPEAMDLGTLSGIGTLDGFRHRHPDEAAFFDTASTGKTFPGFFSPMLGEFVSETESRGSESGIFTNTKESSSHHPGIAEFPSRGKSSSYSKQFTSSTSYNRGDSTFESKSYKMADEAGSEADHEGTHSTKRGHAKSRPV
# T1 sequence (looked up) 2: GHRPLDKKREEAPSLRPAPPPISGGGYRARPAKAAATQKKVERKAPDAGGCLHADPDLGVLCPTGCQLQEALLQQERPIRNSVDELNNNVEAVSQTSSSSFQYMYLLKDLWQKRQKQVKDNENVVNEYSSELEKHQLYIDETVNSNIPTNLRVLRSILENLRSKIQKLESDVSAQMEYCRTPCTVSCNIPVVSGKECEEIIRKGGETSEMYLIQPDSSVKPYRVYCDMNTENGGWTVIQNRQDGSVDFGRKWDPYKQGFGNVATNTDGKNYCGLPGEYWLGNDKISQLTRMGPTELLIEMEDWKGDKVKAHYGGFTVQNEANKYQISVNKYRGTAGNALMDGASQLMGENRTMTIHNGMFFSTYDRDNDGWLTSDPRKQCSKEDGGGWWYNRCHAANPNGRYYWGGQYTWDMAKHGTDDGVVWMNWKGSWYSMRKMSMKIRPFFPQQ
# T1 sequence (looked up) 3: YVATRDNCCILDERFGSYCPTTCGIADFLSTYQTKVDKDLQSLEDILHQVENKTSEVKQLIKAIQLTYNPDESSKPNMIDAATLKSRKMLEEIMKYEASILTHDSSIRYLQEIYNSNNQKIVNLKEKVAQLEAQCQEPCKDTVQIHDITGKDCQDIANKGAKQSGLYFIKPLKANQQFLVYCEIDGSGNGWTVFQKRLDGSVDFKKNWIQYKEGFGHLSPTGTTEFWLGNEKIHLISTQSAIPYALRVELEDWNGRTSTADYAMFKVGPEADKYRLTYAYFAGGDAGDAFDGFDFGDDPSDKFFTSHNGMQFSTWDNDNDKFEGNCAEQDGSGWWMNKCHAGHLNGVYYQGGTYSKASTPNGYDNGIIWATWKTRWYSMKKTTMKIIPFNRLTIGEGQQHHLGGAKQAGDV
# B1: F5 (VHH)
# VHH: QVQLLESGGGLVQPGGSLRLSCAASGDSVSYQYMGWVRQAPGKGLEWVSAIENRDGSTYYADSVKGRFTISRDNSKNTLYLQMNSLRAEDTAVYYCAGENLRSSAEELWYWGQGTLVTVSS
# B2: A2a (scFv)
# scFv: QVQLLESGGGLVQPGGSLRLSCAASGFTFSSYAMSWVRQAPGKGLEWVSSINYSGTNTNYADSVKGRFTISRDNSKNTLYLQMNSLRAEDTAVYYCAKASNSFDYWGQGTLVTVSSGGGGSGGGGSGGGGSTDIQMTQSPSSLSASVGDRVTITCRASQSISSYLNWYQQKPGKAPKLLIYTASSLQSGVPSRFSGSGSGTDFTLTISSLQPEDFATYYCQQSDTAPTTFGQGTKVEIKRAAA
# B3: B3a (scFv)
# scFv: QVQLLESGGGLVQPGGSLRLSCAASGFTFSSYAMSWVRQAPGKGLEWVSTISSGGSATGYADSVKGRFTISRDNSKNTLYLQMNSLRAEDTAVYYCAKTYDAFDYWGQGTLVTVSSGGGGSGGGGSGGGGSTDIQMTQSPSSLSASVGDRVTITCRASQSISSYLNWYQQKPGKAPKLLIYSASNLQSGVPSRFSGSGSGTDFTLTISSLQPEDFATYYCQQSDTAPTTFGQGTKVEIKRAAA
# B4: H6 (VHH)
# VHH: QVQLLESGGGLVQPGGSLRLSCAASGDRFTHNDMGWVRQAPGKGLEWVSTIPTTDGSTYYADSVKGRFTISRDNSKSTLYLQMNSLRAEDTAVYYCATGYMWKAPAYVKYWGQGTLVTVSS
# notes: Human-derived single domain variable fragment (sdFv, VH only) from a phagemid library; Made as soluble sdFv in E. coli HB2151 and purified on protein A; also called clone H6; fibrin-specific sdFv
# B5: A2 (VHH)
# VHH: QVQLLESGGGLVQPGGSLRLSCAASGFSLNDKIMTWVRQAPGKGLEWVSSISGPNGSTYYADSVKGRFTISRDNSKNTLYLQMNSLRAEDTAVYYCAGCAAASSTMEYWGQGTLVTVSS
# B6: A6 (VHH)
# VHH: QVQLLESGGGLVQPGGSLRLSCAASGVRITDDSMSWVRQAPGKGLEWVSSIEDNSGSTYYADSVKGRFTISRDNSKNTLYLQMNSLRAEDTAVYYCAGEGWDVLRRDQAVTSWGQGTLVTVSS
# B7: H6-microgels (protein)
# VH: QVQLLESGGGLVQPGGSLRLSCAASGDRFTHNDMGWVRQAPGKGLEWVSTIPTTDGSTYYADSVKGRFTISRDNSKSTLYLQMNSLRAEDTAVYYCATGYMWKAPAYVKYWGQGTLVTVSSAAAEQKLISEEDLNSAAHYTDIG
# modifications: conjugated to ultralow crosslinked pNIPAm-AAc microgel by EDC/NHS chemistry
# What was measured:
# fibrin [1] = target: T1, fibrin; assay: ELISA on fibrin
# fibrin [2] = target: T1, fibrin; assay: ELISA on fibrin-coated and fibrinogen-coated plates, clone screen
# fibrin [3] = target: T1, fibrin; assay: interferometry (ForteBio Blitz), fibrin layer on sensor
Binder,binding (fibrin [1]),binding (fibrin [2]),further results
B1,binds,–,–
B2,binds,–,–
B3,binds,–,–
B4,–,binds,–
B5,–,binds,–
B6,–,binds,–
B7,–,–,binding (fibrin [3]): binds
